In the supplement of paper PMC4604168 (melanoma cell lines):
The other results are listed elsewhere or left out. Many values rest on one well or one pass, so single values are uncertain.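 Imaging used 1,536-well plates; nuclei positive for cleaved PARP by antibody were divided by total DNA-stained nuclei to yield the apoptosis fraction. Doses for screening kept most cells viable, and cell lines differ markedly in resting and induced cleaved-PARP levels.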

What was measured:
Assay in all cases: cleaved PARP positive nuclei fraction relative to DMSO control; melanoma cells; higher = more apoptosis
Conditions in all cases: library dose: low library concentration; 72 h
501Mel = test system: 501Mel
A101D = test system: A101D
A2058 = test system: A2058
A375 = test system: A375
C32 = test system: C32
CBRC013 = test system: CBRC013 (line from a melanoma biopsy)
CBRC014 = test system: CBRC014 (line from a melanoma biopsy)
CBRC016 = test system: CBRC016 (line from a melanoma biopsy)
CBRC017 = test system: CBRC017 (line from a melanoma biopsy)

| SMILES | cleaved PARP positive nuclei fraction (501Mel) [%] | cleaved PARP positive nuclei fraction (A101D) [%] | cleaved PARP positive nuclei fraction (A2058) [%] | cleaved PARP positive nuclei fraction (A375) [%] | cleaved PARP positive nuclei fraction (C32) [%] | cleaved PARP positive nuclei fraction (CBRC013) [%] | cleaved PARP positive nuclei fraction (CBRC014) [%] | cleaved PARP positive nuclei fraction (CBRC016) [%] | cleaved PARP positive nuclei fraction (CBRC017) [%] |
| --- | --- | --- | --- | --- | --- | --- | --- | --- | --- |
| O=C1NC(=O)/C(=C/c2ccc(-c3ccc(F)cc3O)o2)S1 + COc1cc(N2CCC(N3CCN(C)CC3)CC2)ccc1Nc1ncc(Cl)c(Nc2ccccc2S(=O)(=O)C(C)C)n1 [NVP-TAE684] (first compound 1 µM, partner dose 0.08 µM) | 91.1 | 99.4 | 109 | 182 | 110 | 216 | 90.5 | 73.3 | 73.3 |
| CCN(CC)CCCCNc1ncc2cc(-c3cc(OC)cc(OC)c3)c(NC(=O)NC(C)(C)C)nc2n1 + c1cc(-c2cnn3cc(-c4ccc(OCCN5CCCCC5)cc4)cnc23)ccn1 [Dorsomorphin] (first compound 0.1 µM, partner dose 0.4 µM) | 81.8 | 178 | 55.8 | 13.2 | 71 | 190 | 161 | 36.9 | 127 |
| O=C(O)c1ccc(-c2c[nH]c3ncc(-c4ccccc4)cc23)cc1C1CCCC1 + O=S(=O)(c1ccccc1)N(CC(F)(F)F)c1ccc(C(O)(C(F)(F)F)C(F)(F)F)cc1 [T0901317] (first compound 0.16 µM, partner dose 1.4 µM) | 86.1 | 225 | 107 | 122 | 94.5 | 39.1 | 229 | 150 | 90.5 |
| COC(=O)c1sccc1S(=O)(=O)Nc1ccc(Nc2ccccc2)cc1OC + Cc1cc([N+](=O)[O-])ccc1NS(=O)(=O)c1cc(Cl)ccc1Cl [FH535] (first compound 1 µM, partner dose 1 µM) | 70.5 | 119 | 47.4 | 10.1 | 97.8 | 168 | 161 | 689 | 453 |
| NCC(=O)Nc1ccc(-n2nc(C(F)(F)F)cc2-c2ccc3c(ccc4ccccc43)c2)cc1 + COC(=O)c1sccc1S(=O)(=O)Nc1ccc(Nc2ccccc2)cc1OC [GSK0660] (first compound 1 µM, partner dose 1 µM) | 817 | 100 | 64.8 | 3620 | 69.7 | 144 | 97.4 | 95.1 | 132 |
| O=C(O)C(=O)Nc1sc2c(c1C(=O)O)CCNC2 + Cn1cc(/C=C2\C(=O)Nc3cccnc32)c2ccccc21 [GW441756] (first compound 1.66667 µM, partner dose 0.4 µM) | 74.6 | 244 | 111 | 93.7 | 177 | 49.9 | 74.8 | 58.9 | 34.9 |
| COc1cc2c(Oc3ccc4[nH]c(C)cc4c3F)ncnc2cc1OCCCN1CCCC1 [cediranib] + O=C1NC(=O)/C(=C/c2ccc(-c3ccc(F)cc3O)o2)S1 [AS252424] (first compound 0.4 µM, partner dose 1 µM) | 120 | 105 | 207 | 85.3 | 212 | 92.6 | 90.8 | 52.4 | 77.4 |
| N#Cc1c(O)c2c(-c3ccc(-c4ccccc4O)cc3)csc2[nH]c1=O + O=c1cc(-c2cccc3c2Sc2ccccc2S3)oc(N2CCOCC2)c1 [KU55933] (first compound 2 µM, partner dose 1 µM) | 83.3 | 140 | 147 | 91.4 | 43.6 | 74.4 | 87.2 | 40.2 | 129 |
| COc1cc2c(Oc3ccc4[nH]c(C)cc4c3F)ncnc2cc1OCCCN1CCCC1 [cediranib] + COc1ccc(-c2ccc3c(N4CCOCC4)nc(N4C[C@@H](C)O[C@@H](C)C4)nc3n2)cc1CO [KU0063794] (first compound 0.4 µM, partner dose 0.02 µM) | 21.5 | 105 | 104 | 179 | 102 | 242 | 83.9 | 92.8 | 79.4 |
| O=S(=O)(c1ccccc1)N(CC(F)(F)F)c1ccc(C(O)(C(F)(F)F)C(F)(F)F)cc1 + O=C(O)C(=O)Nc1sc2c(c1C(=O)O)CCNC2 [TCS401] (first compound 1.4 µM, partner dose 1.66667 µM) | 46.6 | 51.9 | 41 | 177 | 136 | 41.9 | 99.2 | 75.7 | 94 |
| COc1ccc2c(c1)CCC1C2CCC2(C)C(NCCCCCCN3C(=O)C=CC3=O)CCC12 (stereo not given) + O=C1NC(=O)/C(=C/c2ccc(-c3ccc(F)cc3O)o2)S1 [AS252424] (first compound 0.4 µM, partner dose 1 µM) | 41.7 | 178 | 90.4 | 252 | 52.7 | 196 | 135 | 137 | 104 |
| NCC(=O)Nc1ccc(-n2nc(C(F)(F)F)cc2-c2ccc3c(ccc4ccccc43)c2)cc1 + c1cc(-c2cnn3cc(-c4ccc(OCCN5CCCCC5)cc4)cnc23)ccn1 [Dorsomorphin] (first compound 1 µM, partner dose 0.4 µM) | 367 | 72.7 | 56.1 | 4520 | 144 | 35.7 | 119 | 52.9 | 88.1 |
| O=C(O)c1ccc(-c2c[nH]c3ncc(-c4ccccc4)cc23)cc1C1CCCC1 + Oc1cc(-c2nc(-c3ccccc3)[nH]c2-c2ccncc2)ccc1Cl [L779450] (first compound 0.16 µM, partner dose 0.2 µM) | 228 | 111 | 11.4 | 415 | 126 | 135 | 107 | 117 | 95.8 |
| CN(C)S(=O)(=O)c1ccc2c(c1)/C(=C/c1cc3c([nH]1)CCCC3)C(=O)N2 + Cn1cc(/C=C2\C(=O)Nc3cccnc32)c2ccccc21 [GW441756] (first compound 0.4 µM, partner dose 0.4 µM) | 80.4 | 149 | 64.3 | 187 | 105 | 112 | 112 | 77.1 | 84.6 |
| COc1cc2c(Oc3ccc4[nH]c(C)cc4c3F)ncnc2cc1OCCCN1CCCC1 [cediranib] + CCc1ccc(CCOc2ccc(CC3SC(=O)NC3=O)cc2)nc1 [pioglitazone] (first compound 0.4 µM, partner dose 2 µM) | 82 | 54.3 | 36.2 | 130 | 75.6 | 175 | 109 | 60 | 91.8 |
| COc1cc2c(Oc3ccc4[nH]c(C)cc4c3F)ncnc2cc1OCCCN1CCCC1 [cediranib] + N#Cc1c(O)c2c(-c3ccc(-c4ccccc4O)cc3)csc2[nH]c1=O [A769662] (first compound 0.4 µM, partner dose 2 µM) | 80 | 119 | 84.5 | 169 | 142 | 203 | 101 | 36.1 | 90.1 |
| COc1ccc(-c2ccc3c(N4CCOCC4)nc(N4C[C@@H](C)O[C@@H](C)C4)nc3n2)cc1CO + CC(C)CCN1c2nc(Nc3cc(F)c(O)c(F)c3)ncc2N(C)C(=O)C1C [BID1870] (first compound 0.02 µM, partner dose 0.2 µM) | 74.9 | 270 | 61.4 | 328 | 120 | 96 | 110 | 62.1 | 79.3 |
| COc1cc2c(Oc3ccc4[nH]c(C)cc4c3F)ncnc2cc1OCCCN1CCCC1 [cediranib] + O=S(=O)(c1ccccc1)N(CC(F)(F)F)c1ccc(C(O)(C(F)(F)F)C(F)(F)F)cc1 [T0901317] (first compound 0.4 µM, partner dose 1.4 µM) | 271 | 130 | 109 | 157 | 153 | 60 | 93.9 | 49 | 89.8 |
| CN(C)S(=O)(=O)c1ccc2c(c1)/C(=C/c1cc3c([nH]1)CCCC3)C(=O)N2 + COc1ccc(-c2ccc3c(N4CCOCC4)nc(N4C[C@@H](C)O[C@@H](C)C4)nc3n2)cc1CO [KU0063794] (first compound 0.4 µM, partner dose 0.02 µM) | 175 | 187 | 95.6 | 67.6 | 68.7 | 70.8 | 103 | 21.9 | 101 |
| CCN(CC)CCCCNc1ncc2cc(-c3cc(OC)cc(OC)c3)c(NC(=O)NC(C)(C)C)nc2n1 + O=C1NC(=O)/C(=C/c2ccc(-c3ccc(F)cc3O)o2)S1 [AS252424] (first compound 0.1 µM, partner dose 1 µM) | 108 | 95.3 | 70.3 | 163 | 172 | 60.7 | 210 | 90.8 | 82.9 |
| O=S(=O)(c1ccccc1)N(CC(F)(F)F)c1ccc(C(O)(C(F)(F)F)C(F)(F)F)cc1 + CCCCCCCCCCCC1=C(O)C(=O)C=C(O)C1=O [Embelin] (first compound 1.4 µM, partner dose 1.2 µM) | 35 | 86.3 | 130 | 44.9 | 141 | 49.2 | 97.3 | 20 | 78.1 |
| COc1ccc(COc2ccc(Cc3cnc(N)nc3N)cc2OC)cc1 + Oc1cc(-c2nc(-c3ccccc3)[nH]c2-c2ccncc2)ccc1Cl [L779450] (first compound 1 µM, partner dose 0.2 µM) | 121 | 144 | 61.3 | 73.8 | 94.2 | 258 | 105 | 19.8 | 79 |
| CN(C)S(=O)(=O)c1ccc2c(c1)/C(=C/c1cc3c([nH]1)CCCC3)C(=O)N2 + O=c1cc(-c2cccc3c2Sc2ccccc2S3)oc(N2CCOCC2)c1 [KU55933] (first compound 0.4 µM, partner dose 1 µM) | 211 | 53.3 | 65.4 | 59.9 | 179 | 143 | 114 | 128 | 81.1 |
| COC(=O)c1sccc1S(=O)(=O)Nc1ccc(Nc2ccccc2)cc1OC + COc1cc2ncnc(Nc3ccc(Oc4ccccc4)cc3)c2cc1OC [SrcI1] (first compound 1 µM, partner dose 2 µM) | 123 | 102 | 95 | 130 | 42.4 | 110 | 87 | 151 | 103 |
| O=S(=O)(c1ccccc1)N(CC(F)(F)F)c1ccc(C(O)(C(F)(F)F)C(F)(F)F)cc1 + Oc1cc(-c2nc(-c3ccccc3)[nH]c2-c2ccncc2)ccc1Cl [L779450] (first compound 1.4 µM, partner dose 0.2 µM) | 119 | 266 | 55.6 | 143 | 146 | 144 | 125 | 101 | 62.7 |

Whole records from above. Values in the order: cleaved PARP positive nuclei fraction (501Mel) [%] | cleaved PARP positive nuclei fraction (A101D) [%] | cleaved PARP positive nuclei fraction (A2058) [%] | cleaved PARP positive nuclei fraction (A375) [%] | cleaved PARP positive nuclei fraction (C32) [%] | cleaved PARP positive nuclei fraction (CBRC013) [%] | cleaved PARP positive nuclei fraction (CBRC014) [%] | cleaved PARP positive nuclei fraction (CBRC016) [%] | cleaved PARP positive nuclei fraction (CBRC017) [%]
O=S(=O)(c1ccccc1)N(CC(F)(F)F)c1ccc(C(O)(C(F)(F)F)C(F)(F)F)cc1 + CCCCCCCCCCCC1=C(O)C(=O)C=C(O)C1=O [Embelin] (first compound 1.4 µM, partner dose 1.2 µM) in the list: 35 | 86.3 | 130 | 44.9 | 141 | 49.2 | 97.3 | 20 | 78.1
CN(C)S(=O)(=O)c1ccc2c(c1)/C(=C/c1cc3c([nH]1)CCCC3)C(=O)N2 + Cn1cc(/C=C2\C(=O)Nc3cccnc32)c2ccccc21 [GW441756] (first compound 0.4 µM, partner dose 0.4 µM) in the list: 80.4 | 149 | 64.3 | 187 | 105 | 112 | 112 | 77.1 | 84.6
